{"sequences": {"note": "Amino acid sequences for entries named in this document (tags omitted).", "UniProt Q9Y5T5": "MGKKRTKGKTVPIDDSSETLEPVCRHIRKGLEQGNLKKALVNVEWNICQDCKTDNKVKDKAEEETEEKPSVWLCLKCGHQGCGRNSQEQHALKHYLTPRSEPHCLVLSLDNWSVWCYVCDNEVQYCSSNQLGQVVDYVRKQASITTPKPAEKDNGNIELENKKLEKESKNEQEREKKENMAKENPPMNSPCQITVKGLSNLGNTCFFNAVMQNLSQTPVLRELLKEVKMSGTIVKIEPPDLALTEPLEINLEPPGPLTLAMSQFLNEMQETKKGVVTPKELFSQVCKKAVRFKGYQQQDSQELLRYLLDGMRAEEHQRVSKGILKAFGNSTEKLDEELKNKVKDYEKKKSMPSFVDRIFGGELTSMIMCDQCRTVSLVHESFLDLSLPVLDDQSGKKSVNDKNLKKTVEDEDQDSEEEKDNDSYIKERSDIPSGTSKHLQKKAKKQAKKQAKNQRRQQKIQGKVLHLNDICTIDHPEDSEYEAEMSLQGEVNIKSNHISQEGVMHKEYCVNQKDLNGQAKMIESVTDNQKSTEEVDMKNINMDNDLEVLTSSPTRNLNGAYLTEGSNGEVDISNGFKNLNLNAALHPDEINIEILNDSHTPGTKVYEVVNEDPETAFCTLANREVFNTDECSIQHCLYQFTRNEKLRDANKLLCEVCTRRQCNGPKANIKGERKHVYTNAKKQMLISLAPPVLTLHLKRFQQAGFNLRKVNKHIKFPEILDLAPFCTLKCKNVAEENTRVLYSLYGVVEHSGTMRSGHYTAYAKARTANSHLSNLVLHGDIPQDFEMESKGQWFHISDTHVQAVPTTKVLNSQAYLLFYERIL", "UniProt Q14145": "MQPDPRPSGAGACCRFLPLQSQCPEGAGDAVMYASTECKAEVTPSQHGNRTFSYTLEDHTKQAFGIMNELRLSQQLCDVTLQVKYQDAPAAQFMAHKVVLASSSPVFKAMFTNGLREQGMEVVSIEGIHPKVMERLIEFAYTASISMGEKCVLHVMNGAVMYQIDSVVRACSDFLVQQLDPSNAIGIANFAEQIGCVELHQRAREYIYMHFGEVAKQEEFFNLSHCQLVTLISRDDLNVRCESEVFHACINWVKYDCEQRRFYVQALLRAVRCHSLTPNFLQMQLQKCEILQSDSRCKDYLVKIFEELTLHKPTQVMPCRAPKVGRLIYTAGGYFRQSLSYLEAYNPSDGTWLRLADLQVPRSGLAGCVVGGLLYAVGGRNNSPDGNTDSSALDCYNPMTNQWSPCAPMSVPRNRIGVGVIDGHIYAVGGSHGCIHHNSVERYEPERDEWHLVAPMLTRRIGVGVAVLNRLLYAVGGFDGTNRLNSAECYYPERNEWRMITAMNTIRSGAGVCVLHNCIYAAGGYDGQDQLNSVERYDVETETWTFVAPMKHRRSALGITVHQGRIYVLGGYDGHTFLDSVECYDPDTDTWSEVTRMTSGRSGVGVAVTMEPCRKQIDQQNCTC"}, "source": "paper PMC10542385", "key": {"[1]": {"biological_target": "USP16 (ubiquitin carboxyl-terminal hydrolase 16), endogenous in HepG2 cells (human (endogenous in HepG2)) (UniProt Q9Y5T5)", "test": "proximity ligation; PLA kit (Merck DUO92102-1KT) on cells; cells not named"}, "[2]": {"biological_target": "USP16 (ubiquitin carboxyl-terminal hydrolase 16), endogenous in HepG2 cells (human (endogenous in HepG2)) (UniProt Q9Y5T5)", "test": "co-IP; endogenous proteins in HepG2 lysate (200 µg), primary antibody (1 µg) or IgG overnight at 4 °C, protein A/G magnetic beads; normal conditions, and with or without H/R challenge (interaction elevated after H/R)"}, "[3]": {"biological_target": "Flag-tagged USP16 (ubiquitin carboxyl-terminal hydrolase 16) (human) (UniProt Q9Y5T5)", "test": "co-IP; HEK293T cells transfected with Flag-USP16 and HA-KEAP1, MG132 for 6 h before collection, harvested after 48 h; IP buffer, protein A/G magnetic beads"}, "[4]": {"biological_target": "GST-KEAP1 (human) (UniProt Q14145)", "test": "pull-down; purified GST or GST-KEAP1 on GST beads incubated with purified Flag-USP16 overnight at 4 °C; washed 3 times with IP lysis buffer; western blot; both purified"}}, "note": "Results are given in words; binding and its absence hold for the method and conditions named. For some of these results: Binding seen in cells or lysates may run through a third protein. Some entries that bind do so weakly or less than the wild type.", "data": [{"substance": "KEAP1 (Kelch Like ECH Associated Protein 1), endogenous in HepG2 cells (from UniProt Q14145 1-624)", "values": [{"measurement": "binding", "setting": "[1]", "result": "binds"}, {"measurement": "binding", "setting": "[2]", "result": "binds"}]}, {"substance": "HA-tagged KEAP1 (Kelch Like ECH Associated Protein 1) (from UniProt Q14145 1-624)", "values": [{"measurement": "binding", "setting": "[3]", "result": "binds"}]}, {"substance": "Flag-tagged USP16 (ubiquitin carboxyl-terminal hydrolase 16) (from UniProt Q9Y5T5 1-823) (enzyme)", "values": [{"measurement": "binding", "setting": "[4]", "result": "binds"}]}]}
